Experimental data taken from PubChem BioAssay AID1671190 (National Center for Advancing Translational Sciences (NCATS), 2021).
In all, about 580,000 compounds went through this assay and about 6,100 (1.1%) were called active. Inconclusive means that the source gave no clear call. Such entries were picked first, then a sample of the others. The call rests on the fitted dose curve; in most records, active means well fitted inhibition curve with a large enough effect; inconclusive means small, poorly fitted or top-dose-only effect, or another doubt; inactive means no such curve, though single readings can be large or run the other way. Potencies of inconclusive entries are doubtful fits and often do not repeat.

The chains behind the UniProt entries cited, without tags or fusion partners. Where a name states a change or a piece, a line headed by the entry shows the natural chain unless it says otherwise.
UniProt P18054: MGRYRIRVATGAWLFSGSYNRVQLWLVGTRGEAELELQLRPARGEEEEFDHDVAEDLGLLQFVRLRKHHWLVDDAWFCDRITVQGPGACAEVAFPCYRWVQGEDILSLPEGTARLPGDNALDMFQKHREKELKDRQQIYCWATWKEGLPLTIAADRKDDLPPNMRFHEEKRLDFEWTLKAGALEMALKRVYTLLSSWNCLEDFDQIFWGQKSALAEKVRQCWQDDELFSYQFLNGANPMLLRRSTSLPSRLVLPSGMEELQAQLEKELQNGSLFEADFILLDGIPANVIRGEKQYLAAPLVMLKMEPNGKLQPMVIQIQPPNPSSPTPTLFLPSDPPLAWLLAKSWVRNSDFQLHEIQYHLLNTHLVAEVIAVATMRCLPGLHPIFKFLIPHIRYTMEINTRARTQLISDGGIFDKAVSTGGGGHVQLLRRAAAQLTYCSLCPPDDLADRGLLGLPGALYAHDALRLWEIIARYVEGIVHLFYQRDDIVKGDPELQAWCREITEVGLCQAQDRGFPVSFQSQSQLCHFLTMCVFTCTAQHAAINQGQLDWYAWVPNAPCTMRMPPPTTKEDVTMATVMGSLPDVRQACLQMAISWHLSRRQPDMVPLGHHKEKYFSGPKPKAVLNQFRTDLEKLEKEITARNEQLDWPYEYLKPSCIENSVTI

target: Polyunsaturated fatty acid lipoxygenase ALOX12 (Homo sapiens) (UniProt P18054); experiment: Primary qHTS assay for inhibitors of human arachidonate 12S-lipoxygenase (ALOX12): Round 2; conditions: purified 12hLO, xylenol orange hydroperoxide absorbance; activity change, negative = inhibition: at 108 µM (top of the series) unless noted
Outline: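 Purified human 12hLO at 150 nM in 25 mM Hepes, 0.01% Triton X-100, pH 7.0, preincubated 15 min at room temperature with compound. Reaction started with 40 uM arachidonic acid, 30 min at room temperature. Hydroperoxide measured by Fe-xylenol orange, 573/405 nm absorbance ratio.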
On the % scale 0 is the no-effect control and ±100 the full control effect; potency means the concentration at half of the fitted maximal effect.

Structure (SMILES) | Potency | activity change, negative = inhibition
CCCNC(=O)C1(C)CCCN(Cc2cccn2C)C1 (stereo unspecified) | inconclusive: 39.8 µM [inhibitor, partial curve, poor fit] | 
Cc1ccc(C(=O)N/N=C2/CC(=O)CC(C)(C)C2)cc1 |  | inactive: -6.18%
Cc1cc(NC(=O)c2cc(-c3ccc(Cl)c(Cl)c3)on2)n(-c2ccccc2)n1 | inconclusive: 63.1 µM [inhibitor, partial curve, poor fit] | 
O=C(c1ccc(-c2ccc([N+](=O)[O-])cc2)o1)N1CCCCCCC1 | inconclusive: 89.1 µM [inhibitor, single point] | 
O=C(CCN1C(=O)C2C3C=CC(C3)C2C1=O)NCC1CCCO1 (stereo unspecified) | inconclusive: 0.794 µM [inhibitor, full curve, poor fit] | 
Cc1cc(Br)ccc1NC(=O)c1c(C)oc2ncnc(N3CCCCC3)c12 | inconclusive: 100 µM [inhibitor, partial curve, poor fit] | 
CN1CC(=O)N(C2CCCNCC2)Cc2c(NCCCN3CCCCC3)ncnc21 (stereo unspecified) | inconclusive: 17.8 µM [inhibitor, full curve] | 
C=CCNc1nc(NCCOC)c2sc(-c3ccccc3)cc2n1 | inconclusive: 44.7 µM [inhibitor, partial curve, poor fit] | 
CN(C)C(=O)c1ccc(-c2cncnc2Nc2ccc(F)cc2)cc1 | inconclusive: 28.2 µM [inhibitor, single point] | 
Cc1ccc(-c2nc3ccccn3c2C=O)cc1 |  | inactive: 0.994%
CCNc1nc2c(c(=O)n(C)c(=O)n2C)n1CCCc1ccccc1 |  | inactive: 1.88%
COc1ccccc1-c1nccc(NCc2cccc(C)c2)n1 | inconclusive: 7.94 µM [inhibitor, full curve, poor fit] | 
Clc1ccc(CN2CCC3(CC2)CC(Cc2ccccc2)=NO3)cc1 | inconclusive: 50.1 µM [inhibitor, partial curve, poor fit] | 
CCN(CC)CCn1c2c(c(SCC(=O)Nc3ccc4c(c3)OCO4)nc1=O)CCC2 |  | inactive: 12.7%
CN(/N=C/c1ccco1)C1=NS(=O)(=O)c2ccccc21 |  | inactive: -1.79%
Clc1cc(Br)ccc1OCCN1CCOCC1 | inconclusive: 1.41 µM [inhibitor, full curve] | 
CN(CC(=O)N1CCN(Cc2ccccc2)CC1)C(=O)Cc1ccc(Cl)c(Cl)c1 | inconclusive: 70.8 µM [inhibitor, single point] | 
CC(CCc1ccccc1)NC(=O)CSc1c2c(nc3ccc(Cl)cc13)CCCC2 (stereo unspecified) | inconclusive: 11.2 µM [inhibitor, full curve, poor fit] | 
Cc1ccccc1NC(=O)CCn1nc(-c2ccccc2)c2ccccc2c1=O | inconclusive: 63.1 µM [inhibitor, partial curve, poor fit] | 
C#CCOC(=O)CCC(=O)O | inconclusive: 31.6 µM [inhibitor, single point] | 
CCc1cc(=O)n(CC(=O)Nc2cccc(C(C)=O)c2)c(-c2ccccc2)n1 | inconclusive: 79.4 µM [inhibitor, partial curve, poor fit] | 

2 records picked at random from those above, as already listed:
Structure (SMILES) | Potency | activity change, negative = inhibition
CCCNC(=O)C1(C)CCCN(Cc2cccn2C)C1 (stereo unspecified) | inconclusive: 39.8 µM [inhibitor, partial curve, poor fit] | 
CC(CCc1ccccc1)NC(=O)CSc1c2c(nc3ccc(Cl)cc13)CCCC2 (stereo unspecified) | inconclusive: 11.2 µM [inhibitor, full curve, poor fit] | 

Further records:

Structure (SMILES) | Potency | activity change, negative = inhibition
CC(C)(C)c1ccc(C#C[C@@H]2C=C[C@@H](O)[C@@H](COC(=O)Nc3ccccc3)O2)cc1 | inconclusive: 70.8 µM [inhibitor, partial curve, poor fit] | 
Cc1c(-c2ccccc2)oc2c(C(=O)OCC(=O)Nc3c(F)cccc3F)cccc2c1=O | inconclusive: 44.7 µM [inhibitor, partial curve, poor fit] | 
Cc1ccnc(-c2cccc([N+](=O)[O-])c2)[n+]1[O-] |  | inactive: -31.8%
Cc1ccc(-c2csc(NC(=O)c3ccc(Cl)c(N4CCCC4=O)c3)n2)cc1 |  | inactive: -18.1%
CCOc1ccc(C(=O)N2CCN(c3oc(-c4cccs4)nc3C#N)CC2)cc1 |  | inactive: -46.8%
COc1cc(N=c2ssnc2Cl)cc(OC)c1 | inconclusive: 0.562 µM [inhibitor, full curve, poor fit] | 
Cc1cc(OCC(=O)Nc2nnc(C3CC3)s2)ccc1Cl | inconclusive: 50.1 µM [inhibitor, single point] | 
CCn1cc(C(=O)NP(=O)(Nc2ccc(C)cc2)Nc2ccc(C)cc2)c2ccccc21 | inconclusive: 25.1 µM [inhibitor, partial curve, poor fit] | 
CCCSc1ccc([C@H]2N[C@@](C)(C(=O)OC)[C@H]3C(=O)N(C)C(=O)[C@@H]23)cc1 | inconclusive: 89.1 µM [inhibitor, single point] | 
COc1ccc(C(=O)CC(c2ccccc2)C2C(=O)CCCC2=O)cc1 (stereo unspecified) | inconclusive: 39.8 µM [inhibitor, partial curve, poor fit] | 
O=C(c1cccc(Cl)c1)N1CCc2nc(C3CC3)nc(-c3ccc(O)cc3)c2CC1 | inconclusive: 89.1 µM [inhibitor, partial curve] | 
CC(C)C[C@@H](CNCC(=O)[C@H](C)NC(=O)c1[nH]cnc1C(=O)N[C@H](CN)CC(C)C)NC(=O)c1nc[nH]c1C(=O)N[C@@H](C)C(=O)O |  | inactive: 37.2%
CS(=O)(=O)c1ccc(Cl)c(NC(=O)CCc2ccccc2)c1 | inconclusive: 112 µM [inhibitor, single point] | 
CCc1ccc(Sc2cc(C(=O)NCCCN3CCC(C)CC3)c3ccccc3n2)cc1 | inconclusive: 50.1 µM [inhibitor, partial curve, poor fit] | 
CCN(CC)C(=O)Oc1ccc2c(=O)c(-c3ccc(OC)cc3)c(C(F)(F)F)oc2c1 |  | inactive: 4.49%
N#Cc1c(C#N)c(SSc2c(C#N)c(C#N)c(N)n2-c2ccccc2)n(-c2ccccc2)c1N | active: 0.355 µM | 
COc1ccc(C(=O)Sc2ccc(Cl)cc2)cc1OC |  | inactive: 0%
CSc1n[nH]c(/N=C/c2oc(O)c3ccccc23)n1 |  | inactive: -13.6%
Cc1noc(C)c1NC(=O)N(C)C[C@H]1Oc2ccc(NC(=O)c3ccncc3)cc2C(=O)N([C@H](C)CO)C[C@@H]1C | inconclusive: 100 µM [inhibitor, partial curve, poor fit] | 
CCOc1ccc(/C=C/c2nc(C#N)c(N3CCC(C)CC3)o2)cc1 | inconclusive: 89.1 µM [inhibitor, partial curve, poor fit] | 
